Laboratory results as given in PMC5080453.
No constants are given. Whether binding was seen depends on the method and setting.

By UniProt entry, the sequences of proteins in these tests, tags left out. Where a name states a change or a piece, a line headed by the entry shows the natural chain unless it says otherwise.
UniProt P13497: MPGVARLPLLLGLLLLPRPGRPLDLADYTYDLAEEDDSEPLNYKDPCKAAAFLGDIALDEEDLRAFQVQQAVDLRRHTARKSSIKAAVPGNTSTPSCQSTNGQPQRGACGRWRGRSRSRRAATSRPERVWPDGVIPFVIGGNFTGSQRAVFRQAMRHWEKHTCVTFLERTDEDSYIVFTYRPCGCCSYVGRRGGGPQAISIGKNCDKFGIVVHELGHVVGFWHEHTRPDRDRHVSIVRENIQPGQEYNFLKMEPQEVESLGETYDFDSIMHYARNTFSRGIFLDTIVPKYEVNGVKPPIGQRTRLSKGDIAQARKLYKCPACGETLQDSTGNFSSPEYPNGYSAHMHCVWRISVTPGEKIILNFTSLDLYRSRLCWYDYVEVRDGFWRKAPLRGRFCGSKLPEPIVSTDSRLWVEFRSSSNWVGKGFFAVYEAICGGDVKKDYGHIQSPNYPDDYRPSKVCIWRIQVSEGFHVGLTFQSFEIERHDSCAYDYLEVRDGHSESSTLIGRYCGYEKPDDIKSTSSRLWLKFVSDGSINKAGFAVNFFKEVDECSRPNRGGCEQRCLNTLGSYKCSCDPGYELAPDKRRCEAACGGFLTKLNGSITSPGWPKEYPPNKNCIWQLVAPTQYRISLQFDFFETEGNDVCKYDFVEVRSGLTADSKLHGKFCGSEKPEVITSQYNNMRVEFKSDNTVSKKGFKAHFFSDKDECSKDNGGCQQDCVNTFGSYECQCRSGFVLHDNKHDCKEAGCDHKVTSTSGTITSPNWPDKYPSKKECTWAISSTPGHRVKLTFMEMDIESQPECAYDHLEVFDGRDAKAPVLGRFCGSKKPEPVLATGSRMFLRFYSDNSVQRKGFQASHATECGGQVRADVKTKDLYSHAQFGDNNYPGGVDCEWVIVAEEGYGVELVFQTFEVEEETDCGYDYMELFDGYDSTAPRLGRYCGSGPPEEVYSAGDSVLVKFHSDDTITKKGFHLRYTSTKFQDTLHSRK

Target: mammalian tolloid (mTld) (UniProt P13497)
Experiment: SPR; Biacore T200, CM5 chip; 2400 RU of mTlD immobilised by amine coupling; 500 nM Tsg or 500 nM ΔN-chordin injected; 25 °C, 10 mM Hepes, 150 mM NaCl, 3 mM EDTA, 0.005% Tween-20, pH 7.4, 30 μl/min; both purified

binding: no binding (tested: 500 nM)
B1: human twisted gastrulation (Tsg), native (glycosylated) (protein, UniProt Q9GZX9 26-223)
chain: CNKALCASDVSKCLIQELCQCRPGEGNCSCCKECMLCLGALWDECCDCVGMCNPRNYSDTPPTSKSTVEELHEPIPSLFRALTEGDTQLNWNIVSFPVAEELSHHENLVSFLETVNQPHHQNVSVPSNNVHAPYSSDKEHMCTVVYFDDCMSIHQCKISCESMGASKYRWFHNACCECIGPECIDYGSKTVKCMNCMF
modifications: N-linked glycans (three predicted N-linked glycosylation sites)
